Data reported in PMC9968170 (Pharmaceutics, 2023).
Like-named read-outs stand apart in the source and are kept apart here.

Sequences of proteins named here, by UniProt entry; tags and fusion partners are left off. A change or cut given only in a name is not applied to a line headed by its entry.
UniProt Q80W57: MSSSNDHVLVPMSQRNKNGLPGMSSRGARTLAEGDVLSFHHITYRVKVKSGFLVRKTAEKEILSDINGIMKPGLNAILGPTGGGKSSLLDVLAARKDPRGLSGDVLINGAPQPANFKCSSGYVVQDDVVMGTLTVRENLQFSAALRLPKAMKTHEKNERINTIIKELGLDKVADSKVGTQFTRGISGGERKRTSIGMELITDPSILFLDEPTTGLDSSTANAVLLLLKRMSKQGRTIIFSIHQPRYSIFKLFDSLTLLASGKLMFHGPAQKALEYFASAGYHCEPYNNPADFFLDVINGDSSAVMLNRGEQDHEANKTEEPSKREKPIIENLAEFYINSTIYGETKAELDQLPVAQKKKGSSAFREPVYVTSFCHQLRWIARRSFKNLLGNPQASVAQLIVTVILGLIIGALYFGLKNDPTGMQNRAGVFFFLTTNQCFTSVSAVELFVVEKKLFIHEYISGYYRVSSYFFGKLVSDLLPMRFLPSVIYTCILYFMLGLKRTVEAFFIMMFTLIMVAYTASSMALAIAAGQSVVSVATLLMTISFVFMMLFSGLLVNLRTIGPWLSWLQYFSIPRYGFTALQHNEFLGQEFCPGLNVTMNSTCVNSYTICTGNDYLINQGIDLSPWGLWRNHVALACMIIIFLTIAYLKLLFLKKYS

Experiments:
[1] = FUR alone 5 mg/kg PO; fed and fasted data pooled
Bcrp = Bcrp (Rattus norvegicus, UniProt Q80W57)
[2] = fasted state, FUR 5 mg/kg PO, NOV 20 mg/kg PO, vs FUR alone
[3] = fed state, FUR 5 mg/kg PO, NOV 20 mg/kg PO, vs FUR alone
[4] = female rats, FUR 5 mg/kg PO, NOV 20 mg/kg PO, vs FUR alone
[5] = irrespective of food and sex, n = 5
[6] = male rats, FUR 5 mg/kg PO, NOV 20 mg/kg PO, vs FUR alone

FUR AUC, female compared to male rats [1]: ~ 2 fold | FUR Cmax, female compared to male rats [1]: ~ 2 fold | Effect of NOV co-administration on CLR of FUR (Bcrp; FUR 5 mg/kg PO, NOV 20 mg/kg PO, CLR = Ae0-6 h/AUC0-6 h): no effect | Increase of FUR AUC with NOV coadministration (Bcrp; [2]): 3 fold | Increase of FUR Cmax with NOV coadministration (Bcrp; [2]): 3 fold | Increase of FUR AUC with NOV coadministration (Bcrp; [3]): 2 fold | Increase of FUR Cmax with NOV coadministration (Bcrp; [3]): 2 fold | Increase of FUR AUC with NOV coadministration (Bcrp; [4]): 2 fold | Increase of FUR Cmax with NOV coadministration (Bcrp; [4]): 2 fold | Increase of FUR AUC with NOV coadministration (Bcrp; [5]): > 2 fold | Increase of FUR Cmax with NOV coadministration (Bcrp; [5]): > 2 fold | Increase of FUR AUC with NOV coadministration (Bcrp; [6]): 3- to 4 fold | Increase of FUR Cmax with NOV coadministration (Bcrp; [6]): 3- to 4 fold | Sex-effect on AUC, Cmax, or CLR of FUR when co-administered with NOV (Bcrp; male vs female rats, FUR 5 mg/kg PO, NOV 20 mg/kg PO): No sex-effect
SMILES: NS(=O)(=O)c1cc(C(=O)O)c(NCc2ccco2)cc1Cl [FUR, Furosemide]
